The values that follow come from publication PMC7819943, “Rice protein-binding microarrays: a tool to detect cis-acting elements near promoter regions in rice”.

Chains of the proteins cited; added tags and fusions are not shown.
UniProt Q0JBA9, entry or part of it: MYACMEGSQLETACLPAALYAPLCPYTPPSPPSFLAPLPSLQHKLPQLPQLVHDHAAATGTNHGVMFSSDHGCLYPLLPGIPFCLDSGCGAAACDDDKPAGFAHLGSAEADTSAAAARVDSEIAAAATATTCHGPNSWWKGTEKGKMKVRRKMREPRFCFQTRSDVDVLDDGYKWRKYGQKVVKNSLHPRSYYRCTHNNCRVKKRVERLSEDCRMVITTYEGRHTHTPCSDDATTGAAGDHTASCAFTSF

The list shows a part of the results.

The target of this experiment is OsWRKY34 (Oryza sativa, UniProt Q0JBA9 1-250). Description: protein-binding microarray (RPBM); PBS, 2% BSA, 51.3 ng/ul salmon testes DNA, 50 uM zinc acetate, 200 nM TF, 25 C, 1 h; high values mean tight binding. The settings on record: protein: recombinant; tags: N-terminal polyhistidine and DsRed monomer fusion (pET32a); label: CyDye5-dUTP incorporated in the synthesized complementary strand; 3' TTTTT single-stranded linker to array surface; dsDNA, one strand shown. The procedure, abridged: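 Using Ni–NTA, transcription factors fused N-terminally to polyhistidine and DsRed were purified after expression in E. coli BL21-CodonPlus. These were incubated at 200 nM with a blocked, double-stranded custom Agilent array for 1 h at 25 °C in a buffer containing 50 µM zinc acetate, and the array was washed. The binding signal is per-feature fluorescence intensity (arbitrary units) on an Axon 4000B scanner.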
As for “TCCTCTCCCACGTCCGCGCACCGCCGGCTCCCTCCGCCGCCGGAGTCACCTAGTGCAG”, the binding signal was 9840 fluorescence intensity (a.u.). For the sequence “TCCTTAATTCTATTTTTCATTTTCCTGTCTTTTAGCCTCACGGAGTCACCTAGTGCAG”, the binding signal was 9010 fluorescence intensity (a.u.).

With “ATCTGGATTTCTTTTGGTTAACTACCTGATCTCATCTCCCCGGAGTCACCTAGTGCAG”, the binding signal is 8960 fluorescence intensity (a.u.). As for “GCACTTATATCTTTTGTCGTTGGTTCTATATGCCCATTTTCGGAGTCACCTAGTGCAG”, the binding signal was 15400 fluorescence intensity (a.u.). For “CTTTCTTCTACTACCTTCGACCCAACTATACGTGACACATCGGAGTCACCTAGTGCAG”, the binding signal is 9060 fluorescence intensity (a.u.). On to “GCTTCAATCCTAGCCATACATTTTTCTCACTCCATTTCATCGGAGTCACCTAGTGCAG”, for which the binding signal is 9400 fluorescence intensity (a.u.). For the sequence “AGGGCTCCCGCCGACGCTCTCTCCTCGTCGCCGGATATTCCGGAGTCACCTAGTGCAG”, the binding signal is 8390 fluorescence intensity (a.u.).

Turning to “GCTCGTTTTTTCTTAAAATTTTCAACTTTTTTATCACATTCGGAGTCACCTAGTGCAG”, the binding signal is 11400 fluorescence intensity (a.u.). As for “ACCGAACCAATCTCTTGCTTTTTAATCATTGCGCAGGTAGCGGAGTCACCTAGTGCAG”, the binding signal was 8830 fluorescence intensity (a.u.). As for “GCAACCGACCTCGCCCACCCGCACCGCACCACACCCACGCCGGAGTCACCTAGTGCAG”, the figure is 9720 fluorescence intensity (a.u.); as for “GGACATAATCCCTGCGGTTCCATAATTCTTGACGTCCTTACGGAGTCACCTAGTGCAG”, 8880 fluorescence intensity (a.u.); as for “GTGTGTGTTGGCCATCGGTGGCGGCCATCTTCTCGCTCGACGGAGTCACCTAGTGCAG”, 9760 fluorescence intensity (a.u.). As for “GCAGTACACATATCCAAATCTACGTTGTGTTCGATCGATCCGGAGTCACCTAGTGCAG”, the figure is 8180 fluorescence intensity (a.u.); as for “GCTTTTCTCATTCTAAGACTTTATTTTCTTTCGGCAAAGACGGAGTCACCTAGTGCAG”, 9340 fluorescence intensity (a.u.); as for “TGTCTATATACCTCCCTGTTACTGTCTGGTTTACTGCATGCGGAGTCACCTAGTGCAG”, 8780 fluorescence intensity (a.u.). Turning to “TGTGACACTGGAACGTCGGTTTGATCACCCGGCCGGCCCCCGGAGTCACCTAGTGCAG”, the binding signal was 9090 fluorescence intensity (a.u.). Consider “TGCACCCAAATTCTCGCCGTCGTTCCATCGTTTCTGTGGACGGAGTCACCTAGTGCAG”, for which the binding signal is 8370 fluorescence intensity (a.u.). Consider “AACGGCTATTCCTACGTTAATTTTCATGTTTTGTAATGATCGGAGTCACCTAGTGCAG”, for which the binding signal was 8160 fluorescence intensity (a.u.).

Take “GCGCCACCACCGCCGTCGTGCGACGCCGTCTGTGCCGTGCCGGAGTCACCTAGTGCAG”: the binding signal is 8300 fluorescence intensity (a.u.). Consider “CTACCATTCAAATCCCTAACTGCCTGTCTGCCATTTCTCTCGGAGTCACCTAGTGCAG”, for which the binding signal was 10400 fluorescence intensity (a.u.). Take “CACACACACTCACAACTGTCAAATCTCACCTGCAGATTAACGGAGTCACCTAGTGCAG”: the binding signal was 8850 fluorescence intensity (a.u.).

As to “CTCTCCTTGTTGATCGCCTATATAAACCGCGCCATGCGCCCGGAGTCACCTAGTGCAG”, the binding signal was 8080 fluorescence intensity (a.u.). Regarding “AGCAGGTATGTCACTGTGTTAGTTTCGGTTCGATTTTGGGCGGAGTCACCTAGTGCAG”, the binding signal is 9910 fluorescence intensity (a.u.). As for “TCACACCGTTCTTCATGTATTTTAATAAGTGTGCACAATACGGAGTCACCTAGTGCAG”, the binding signal was 8700 fluorescence intensity (a.u.). For “CATTTAGTTTGGGATGGGGTGGTTGATCCGATTTTTTCTGCGGAGTCACCTAGTGCAG”, the binding signal was 14700 fluorescence intensity (a.u.). As to “CTACTCCCTCCGTTTCACAGCATTTTCCACATTCATATTGCGGAGTCACCTAGTGCAG”, the binding signal is 10200 fluorescence intensity (a.u.). For “GCGCGCCGAGTCCAACTTGCCCACCAACTCGCGCCAACCACGGAGTCACCTAGTGCAG”, the binding signal is 11000 fluorescence intensity (a.u.). On to “CTCTCTCTCTCGTATTTTCCCATGTTACATGCTCTCTCTTCGGAGTCACCTAGTGCAG”, for which the binding signal is 12000 fluorescence intensity (a.u.). Turning to “TGCTTTACTTGCTCACAGTTGTCCTCTTGCCTCGTCGTGTCGGAGTCACCTAGTGCAG”, the binding signal was 8400 fluorescence intensity (a.u.). On to “TATTTTCTGCTGTTTGCATGTAACGCCGCGGCACTACTCTCGGAGTCACCTAGTGCAG”, for which the binding signal was 8840 fluorescence intensity (a.u.). With “ATGACCTACATTTTTTTTCATATTTACCCAACTATCGACGCGGAGTCACCTAGTGCAG”, the binding signal was 8170 fluorescence intensity (a.u.).

As to “GAAATATTTGTTGCTGATGTACGCTTTTCTGTTTTTCTTTCGGAGTCACCTAGTGCAG”, the binding signal was 13800 fluorescence intensity (a.u.). “ATGTCTCCGTCTCTTTTACCTCAGTCTCGCGTATATCCTACGGAGTCACCTAGTGCAG”: the binding signal is 10100 fluorescence intensity (a.u.). Then “GCCCAAAAATACAATCTCTGCACAATACAGAACCTTTGACCGGAGTCACCTAGTGCAG”, with 8710 fluorescence intensity (a.u.); and “CGGCCTCCTCACCCACATCCGCCGCCGCCGCCGCAGAATCCGGAGTCACCTAGTGCAG”, with 8680 fluorescence intensity (a.u.). Consider “ATAATTGGTCAACCTGTTTTTCTTGACCGTTCTCGAGCTCCGGAGTCACCTAGTGCAG”, for which the binding signal was 11100 fluorescence intensity (a.u.). Then “CCACGTTGACTAGAACCGAGCACTATACAGCTTAGGGCGTCGGAGTCACCTAGTGCAG”, with 8360 fluorescence intensity (a.u.); and “ATAACTAATATCCTCAACCGTTTGCTCTCATCACACATTCCGGAGTCACCTAGTGCAG”, with 9970 fluorescence intensity (a.u.); and “ACCGTCGTCAGCAACGCCGCTACTGCCACTGCAATTGCCGCGGAGTCACCTAGTGCAG”, with 8320 fluorescence intensity (a.u.). With “GTTCTTCCCCTATTTCTTACTGTAGTCTCATTTATTTAGACGGAGTCACCTAGTGCAG”, the binding signal is 8710 fluorescence intensity (a.u.).

As to “CCTTCGCCGCCTCGTGACCACCTCGATTTATTTCGCAACCCGGAGTCACCTAGTGCAG”, the binding signal is 9880 fluorescence intensity (a.u.). As for “TTCTTTTTCTTTTTCTTTTTGTTTTTGGTGGACATAAATTCGGAGTCACCTAGTGCAG”, the figure is 8800 fluorescence intensity (a.u.); as for “CGTGATGGTGTTATTTGGTTACATCGGTTTAGAACGGGTTCGGAGTCACCTAGTGCAG”, 10200 fluorescence intensity (a.u.). Take “CAACGTTATTTTCCATTCCGCTCGTCGCTCCCACTCCTCTCGGAGTCACCTAGTGCAG”: the binding signal was 9450 fluorescence intensity (a.u.). In the case of “GAGATCTCTCGTCACTCCACTGATTCACTCGCTAGCTAGCCGGAGTCACCTAGTGCAG”, the binding signal was 8780 fluorescence intensity (a.u.). For “TGCCAAAATTTCCAATTTATTTTTTTTTTGTTCATGATCTCGGAGTCACCTAGTGCAG”, the binding signal is 8040 fluorescence intensity (a.u.). As for “GTCCACATTGTCCTTTGTGTCCCATCATCTTAGTTTTTTCCGGAGTCACCTAGTGCAG”, the figure is 11100 fluorescence intensity (a.u.); as for “GTAGCTTTCCTCTCTGGATCGATCATATATATCACTATATCGGAGTCACCTAGTGCAG”, 9880 fluorescence intensity (a.u.). With “GACTCTAATATTCTCATGTTCCCAAATCCCACTTCCCACACGGAGTCACCTAGTGCAG”, the binding signal is 10200 fluorescence intensity (a.u.). Consider “CGTGGTTGTGGAGTAGATAAAAAAAGCCCGATCGGGCTGTCGGAGTCACCTAGTGCAG”, for which the binding signal is 8620 fluorescence intensity (a.u.). As for “CGTCGTGTGTATATTGGTAAAAACTTGGACGACACCATAGCGGAGTCACCTAGTGCAG”, the figure is 8180 fluorescence intensity (a.u.); as for “CTCTCTCTCGGTCTCATCAGTTTCTCACTCCACCGTTTTTCGGAGTCACCTAGTGCAG”, 14300 fluorescence intensity (a.u.); as for “GCCGTGTGAATTTTTTTCTTATTCCTTTTCTTTTGAACGTCGGAGTCACCTAGTGCAG”, 9500 fluorescence intensity (a.u.). As to “CATCGTATTCCGCGTGCATGCTTTTCAAACTGTTAAACAGCGGAGTCACCTAGTGCAG”, the binding signal was 8240 fluorescence intensity (a.u.).
